Experimental data: publication PMC8256288
No constants are given. Whether binding was seen depends on the method and setting. Binding seen in cells or lysates may run through a third protein. Some entries that bind do so weakly or less than the wild type.

Amino acid sequences for entries named in this document (tags omitted). A change or cut given only in a name is not applied to a line headed by its entry. Chains listed by the source or under a name are the forms on record and can include a tag or linker.
UniProt Q5FBB7: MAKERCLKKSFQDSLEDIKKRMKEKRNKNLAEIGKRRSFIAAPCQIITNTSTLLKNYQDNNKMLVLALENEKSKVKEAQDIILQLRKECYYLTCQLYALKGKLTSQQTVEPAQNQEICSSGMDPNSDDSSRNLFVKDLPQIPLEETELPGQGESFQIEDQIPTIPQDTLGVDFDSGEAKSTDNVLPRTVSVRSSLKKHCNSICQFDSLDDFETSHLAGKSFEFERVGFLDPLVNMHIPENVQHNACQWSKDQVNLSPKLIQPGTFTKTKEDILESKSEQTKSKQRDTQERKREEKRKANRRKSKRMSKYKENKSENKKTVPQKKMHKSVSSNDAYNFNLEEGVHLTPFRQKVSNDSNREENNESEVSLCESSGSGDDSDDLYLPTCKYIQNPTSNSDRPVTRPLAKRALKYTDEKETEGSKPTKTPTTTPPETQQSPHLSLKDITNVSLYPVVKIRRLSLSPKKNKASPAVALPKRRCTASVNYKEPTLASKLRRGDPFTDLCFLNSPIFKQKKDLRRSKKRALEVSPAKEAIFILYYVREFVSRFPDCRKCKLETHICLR
YFP‐hSgo1 4A (Q5FBB7, form named): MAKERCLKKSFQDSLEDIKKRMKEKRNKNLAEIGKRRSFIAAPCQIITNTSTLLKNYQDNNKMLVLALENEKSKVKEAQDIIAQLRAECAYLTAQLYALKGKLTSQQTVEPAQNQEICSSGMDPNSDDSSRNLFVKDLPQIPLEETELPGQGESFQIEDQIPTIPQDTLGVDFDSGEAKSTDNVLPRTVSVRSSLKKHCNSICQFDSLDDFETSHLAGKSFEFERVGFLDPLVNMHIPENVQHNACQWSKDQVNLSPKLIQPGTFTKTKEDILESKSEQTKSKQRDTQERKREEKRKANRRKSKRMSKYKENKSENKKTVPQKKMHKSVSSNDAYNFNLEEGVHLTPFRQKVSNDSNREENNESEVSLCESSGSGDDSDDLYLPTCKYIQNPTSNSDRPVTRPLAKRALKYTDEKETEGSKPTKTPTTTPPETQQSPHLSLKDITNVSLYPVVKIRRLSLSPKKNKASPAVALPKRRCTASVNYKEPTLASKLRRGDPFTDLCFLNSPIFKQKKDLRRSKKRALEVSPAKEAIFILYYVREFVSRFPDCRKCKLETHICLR
YFP‐hSgo1 3A (Q5FBB7, form named): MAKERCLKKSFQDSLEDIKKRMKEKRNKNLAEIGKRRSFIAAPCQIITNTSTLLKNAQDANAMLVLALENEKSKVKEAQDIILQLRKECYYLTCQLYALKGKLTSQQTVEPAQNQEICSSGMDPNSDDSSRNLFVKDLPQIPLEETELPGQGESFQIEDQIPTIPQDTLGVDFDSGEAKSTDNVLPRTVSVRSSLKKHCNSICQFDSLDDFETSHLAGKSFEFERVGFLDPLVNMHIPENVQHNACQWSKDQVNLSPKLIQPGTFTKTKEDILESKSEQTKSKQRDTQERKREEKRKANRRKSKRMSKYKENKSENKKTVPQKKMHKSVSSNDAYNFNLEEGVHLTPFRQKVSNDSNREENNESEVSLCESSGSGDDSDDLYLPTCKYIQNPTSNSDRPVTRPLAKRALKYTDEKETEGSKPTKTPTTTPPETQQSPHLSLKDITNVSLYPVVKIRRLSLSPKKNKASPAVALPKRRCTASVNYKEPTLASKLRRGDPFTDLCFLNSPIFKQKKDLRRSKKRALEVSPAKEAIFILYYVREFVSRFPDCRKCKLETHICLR
UniProt Q9UQE7: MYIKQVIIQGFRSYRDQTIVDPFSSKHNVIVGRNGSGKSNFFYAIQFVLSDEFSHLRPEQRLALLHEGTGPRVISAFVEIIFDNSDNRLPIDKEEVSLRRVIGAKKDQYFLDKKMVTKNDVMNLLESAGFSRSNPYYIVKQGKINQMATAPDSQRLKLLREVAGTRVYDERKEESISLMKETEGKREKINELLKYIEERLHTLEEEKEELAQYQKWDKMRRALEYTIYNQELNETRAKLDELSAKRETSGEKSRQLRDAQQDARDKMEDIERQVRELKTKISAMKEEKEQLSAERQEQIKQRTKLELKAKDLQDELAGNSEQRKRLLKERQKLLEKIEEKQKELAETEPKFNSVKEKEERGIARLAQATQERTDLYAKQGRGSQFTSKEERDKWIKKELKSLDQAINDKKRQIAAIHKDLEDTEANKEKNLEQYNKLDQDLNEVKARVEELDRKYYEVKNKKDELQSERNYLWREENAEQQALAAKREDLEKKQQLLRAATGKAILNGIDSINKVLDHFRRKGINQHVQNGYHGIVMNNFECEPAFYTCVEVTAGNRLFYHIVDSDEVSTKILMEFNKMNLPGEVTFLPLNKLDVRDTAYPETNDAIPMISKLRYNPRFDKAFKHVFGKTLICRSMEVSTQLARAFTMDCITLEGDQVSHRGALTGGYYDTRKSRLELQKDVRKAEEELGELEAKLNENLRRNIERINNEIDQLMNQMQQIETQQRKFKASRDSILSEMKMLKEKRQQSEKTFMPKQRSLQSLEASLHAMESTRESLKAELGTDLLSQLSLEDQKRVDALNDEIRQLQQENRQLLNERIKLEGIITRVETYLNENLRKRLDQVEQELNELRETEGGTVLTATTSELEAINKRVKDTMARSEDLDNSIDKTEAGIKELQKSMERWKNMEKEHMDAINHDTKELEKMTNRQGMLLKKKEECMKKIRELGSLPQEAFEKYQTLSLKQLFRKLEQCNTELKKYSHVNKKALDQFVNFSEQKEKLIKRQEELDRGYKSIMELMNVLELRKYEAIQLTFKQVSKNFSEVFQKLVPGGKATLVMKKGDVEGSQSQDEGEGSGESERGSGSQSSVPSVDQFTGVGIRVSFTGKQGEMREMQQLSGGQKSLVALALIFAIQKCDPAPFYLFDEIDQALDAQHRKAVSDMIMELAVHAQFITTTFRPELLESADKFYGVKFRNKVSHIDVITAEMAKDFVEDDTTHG

How the values were obtained:
Experiment in all cases: co-IP; IP of stably expressed YFP-hSgo1 WT, 3A, 4A; immunoblot of Smc1 and Smc3, LI-COR; salt not stated for this experiment
[1] = biological target: YFP‐hSgo1 4A (human) (UniProt Q5FBB7)
[2] = biological target: YFP‐hSgo1 WT (human) (UniProt Q5FBB7)
[3] = biological target: YFP‐hSgo1 3A (human) (UniProt Q5FBB7)

Measured: binding

Smc3 (endogenous) (from UniProt Q9UQE7 1-1217)
binds: [1] | [2] | [3]
